For at least one compound, name, drawing or mass did not settle the structure.
Key:
Type in all cases: cell-based
[1] = tested on: M. Bovis BCG ΔMtpA + MspA
[2] = tested on: M. Bovis BCG ΔMtpA + MtpA
M. Bovis BCG ΔMtpA = details: for Resistance factor: ratio MICΔMtpA/MICwt

Row | Structure (SMILES) | MIC for M. Bovis BCG ΔMtpA + MspA [1] [µg/mL] | MIC for M. Bovis BCG ΔMtpA + MtpA [2] [µg/mL] | MIC for M. Bovis BCG ΔMtpA (M. Bovis BCG ΔMtpA) [µg/mL] | Resistance factor (M. Bovis BCG ΔMtpA) | change of resistance / MIC in the ΔMtpA mutant, in words (M. Bovis BCG ΔMtpA)
1 | CN(C)[C@@H]1C(O)=C(C(N)=O)C(=O)[C@@]2(O)C(O)=C3C(=O)c4c(O)cccc4[C@@](C)(O)[C@H]3C[C@@H]12 [Tetracycline] | 62.5 | 62.5 | >250 | >8 | 
2 | COc1c(N2C[C@@H]3CCCN[C@@H]3C2)c(F)cc2c(=O)c(C(=O)O)cn(C3CC3)c12 [Moxifloxacin] | 0.5 | 0.5 |  |  | 
3 | CO[C@H]1/C=C/O[C@@]2(C)Oc3c(C)c(O)c4c(O)c(c(/C=N/N5CCN(C)CC5)c(O)c4c3C2=O)NC(=O)/C(C)=C\C=C\[C@H](C)[C@H](O)[C@@H](C)[C@@H](O)[C@@H](C)[C@H](OC(C)=O)[C@@H]1C [Rifampicin] | 0.032 | 0.032 | >0.128 | 16 | significantly increased
4 | C[C@H]1COc2c(N3CCN(C)CC3)c(F)cc3c(=O)c(C(=O)O)cn1c23 [Levofloxacin] | 0.125 | 0.125 | 0.5 | 4 | 
5 | CC1COc2c(N3CCN(C)CC3)c(F)cc3c(=O)c(C(=O)O)cn1c23 (stereo not shown) [Ofloxacin] | 0.25 | 0.25 | 0.5 | 2 | 
